According to publication PMC8058707:
Results are given in words; binding and its absence hold for the method and conditions named. Binding seen in cells or lysates may run through a third protein. Some results given as binding are weak or reduced against the parent protein; the word gives no strength.

By UniProt entry, the sequences of proteins in these tests, tags left out.
UniProt P46937: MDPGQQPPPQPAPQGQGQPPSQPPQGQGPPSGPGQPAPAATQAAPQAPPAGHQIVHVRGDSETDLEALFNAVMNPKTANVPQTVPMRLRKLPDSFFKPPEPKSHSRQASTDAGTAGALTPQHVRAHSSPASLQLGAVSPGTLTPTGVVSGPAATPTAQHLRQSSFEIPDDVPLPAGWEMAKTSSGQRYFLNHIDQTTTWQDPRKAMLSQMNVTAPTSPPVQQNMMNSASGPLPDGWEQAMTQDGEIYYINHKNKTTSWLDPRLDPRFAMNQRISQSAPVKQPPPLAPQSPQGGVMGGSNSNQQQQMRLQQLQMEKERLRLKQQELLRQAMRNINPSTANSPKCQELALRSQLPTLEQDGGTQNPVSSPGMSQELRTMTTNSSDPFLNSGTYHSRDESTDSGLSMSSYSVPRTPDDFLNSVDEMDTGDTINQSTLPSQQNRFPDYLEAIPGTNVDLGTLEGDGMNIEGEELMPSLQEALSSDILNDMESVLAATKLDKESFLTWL
UniProt Q9Y297: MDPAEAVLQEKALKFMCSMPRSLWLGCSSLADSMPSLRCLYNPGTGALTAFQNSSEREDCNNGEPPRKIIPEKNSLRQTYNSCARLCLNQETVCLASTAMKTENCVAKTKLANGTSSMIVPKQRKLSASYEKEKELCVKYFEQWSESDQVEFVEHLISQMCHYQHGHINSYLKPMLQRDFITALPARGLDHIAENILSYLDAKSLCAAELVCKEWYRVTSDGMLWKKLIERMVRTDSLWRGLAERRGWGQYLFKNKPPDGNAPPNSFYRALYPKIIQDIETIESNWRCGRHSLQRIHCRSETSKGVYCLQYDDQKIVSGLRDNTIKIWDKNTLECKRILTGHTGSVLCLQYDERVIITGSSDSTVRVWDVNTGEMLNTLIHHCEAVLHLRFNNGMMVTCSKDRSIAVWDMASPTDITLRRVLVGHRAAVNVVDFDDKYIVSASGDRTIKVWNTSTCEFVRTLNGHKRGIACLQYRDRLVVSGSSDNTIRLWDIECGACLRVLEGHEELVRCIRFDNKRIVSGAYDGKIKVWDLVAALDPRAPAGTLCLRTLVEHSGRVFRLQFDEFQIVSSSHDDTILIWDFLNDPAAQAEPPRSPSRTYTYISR

Biological target: Yes-associated protein (human (endogenous in H1975)) (UniProt P46937)
Test: co-IP; whole cell lysates incubated with antibody-conjugated protein A/G magnetic beads in Western/IP lysis buffer at 4 °C overnight, washed five times, then IB; cells treated with erastin, Sorafenib or RSL3

beta-transducin repeat containing E3 ubiquitin protein ligase (from UniProt Q9Y297 1-605)
binding: binds
